Earlier results, collected in patent publication US8765060B2, “Chemical sensor” (Regents of the University of Minnesota, priority 2005, dated 2014).

Details: physiological concentrations; creatininium ion exchanger ISE; cited from earlier work

| Compound | emf response / drift caused by the compound |
| --- | --- |
| CC(C)CCC[C@@H](C)[C@H]1CC[C@H]2[C@@H]3CC=C4C[C@@H](O)CC[C@]4(C)[C@H]3CC[C@]12C [cholesterol] | no significant emf responses |
| CC1=C(CCC(=O)O)c2cc3nc(cc4[nH]c(cc5[nH]c(cc1n2)c(C)c5CCC(=O)O)c(CCC(=O)O)c4C)C(CCC(=O)O)=C3C [coproporphyrin] | positive emf drifts |
| CCCCCCCC(=O)O [octanoic acid] | positive emf drifts |
| C[C@H](CCC(=O)NCCS(=O)(=O)O)[C@H]1CC[C@H]2[C@@H]3[C@H](O)C[C@@H]4C[C@H](O)CC[C@]4(C)[C@H]3C[C@H](O)[C@]12C [taurocholic acid] | positive emf drifts |
| phosphatidylethanolamine | positive emf drifts |
| phosphatidylserine | positive emf drifts |
